The other results are listed elsewhere or left out.
Columns and labels:
Assay in all cases: glycan array binding signal (z-score within array); higher = stronger binding
Conditions in all cases: glycan notation: IUPAC condensed, linker removed
[1] = biological target: Gal(b1-4)GlcNAc(b1-2)Man(a1-6)[Man(a1-3)]Man(b1-4)GlcNAc(b1-4)GlcNAc
Outline: (§1)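 Negative Z-scores can be read as non-binding. The Z-score is calculated within each array and then averaged across arrays of one protein sequence at different concentrations or buffers and across linkers. Arrays, 3228 in all, were curated from the Consortium for Functional Glycomics database and kept only where the protein sequence was available.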

[2] = biological target: Gal(b1-4)GlcNAc(b1-2)[Gal(b1-4)GlcNAc(b1-4)]Man(a1-3)[Gal(b1-4)GlcNAc(b1-2)Man(a1-6)]Man(b1-4)GlcNAc(b1-4)GlcNAc
Outline: as §1

[3] = biological target: Gal(b1-4)GlcNAc(b1-2)[Gal(b1-4)GlcNAc(b1-4)]Man(a1-3)[Gal(b1-4)GlcNAc(b1-2)[Gal(b1-4)GlcNAc(b1-6)]Man(a1-6)]Man(b1-4)GlcNAc(b1-4)GlcNAc
Outline: as §1

[4] = biological target: Gal(b1-4)GlcNAc(b1-2)[Gal(b1-4)GlcNAc(b1-4)]Man(a1-3)[GlcNAc(b1-4)][Gal(b1-4)GlcNAc(b1-2)Man(a1-6)]Man(b1-4)GlcNAc(b1-4)GlcNAc
Outline: as §1

[5] = biological target: Gal(b1-4)GlcNAc(b1-2)[Gal(b1-4)GlcNAc(b1-4)]Man(a1-3)[GlcNAc(b1-4)][Gal(b1-4)GlcNAc(b1-2)[Gal(b1-4)GlcNAc(b1-6)]Man(a1-6)]Man(b1-4)GlcNAc(b1-4)GlcNAc
Outline: as §1

[6] = biological target: Gal(b1-4)GlcNAc(b1-2)[Gal(b1-4)GlcNAc(b1-6)]Man(a1-6)[Gal(b1-4)GlcNAc(b1-2)Man(a1-3)]Man(b1-4)GlcNAc(b1-4)GlcNAc
Outline: as §1

[7] = biological target: Gal(b1-4)GlcNAc(b1-2)[Gal(b1-4)GlcNAc(b1-6)]Man(a1-6)[Gal(b1-4)GlcNAc(b1-2)Man(a1-3)]Man(b1-4)GlcNAc(b1-4)[Fuc(a1-6)]GlcNAc
Outline: as §1

[8] = biological target: Gal(b1-4)GlcNAc(b1-2)[Gal(b1-4)GlcNAc(b1-6)]Man(a1-6)[GlcNAc(b1-4)][Gal(b1-4)GlcNAc(b1-2)Man(a1-3)]Man(b1-4)GlcNAc(b1-4)GlcNAc
Outline: as §1

[9] = biological target: Gal(b1-4)GlcNAc(b1-2)[Gal(b1-4)GlcNAc(b1-6)]Man(a1-6)[GlcNAc(b1-4)][Gal(b1-4)GlcNAc(b1-2)[Gal(b1-4)GlcNAc(b1-4)]Man(a1-3)]Man(b1-4)GlcNAc(b1-4)[Fuc(a1-6)]GlcNAc
Outline: as §1

[10] = biological target: Gal(b1-4)GlcNAc(b1-3)Gal(b1-3)GalNAc
Outline: as §1

[11] = biological target: Gal(b1-4)GlcNAc(b1-3)Gal(b1-3)GlcNAc
Outline: as §1

[12] = biological target: Gal(b1-4)GlcNAc(b1-3)Gal(b1-4)Glc
Outline: as §1

[13] = biological target: Gal(b1-4)GlcNAc(b1-3)Gal(b1-4)GlcNAc
Outline: as §1

[14] = biological target: Gal(b1-4)GlcNAc(b1-3)Gal(b1-4)GlcNAc(b1-2)Man(a1-3)[Gal(b1-4)GlcNAc(b1-3)Gal(b1-4)GlcNAc(b1-2)Man(a1-6)]Man(b1-4)GlcNAc(b1-4)GlcNAc
Outline: as §1

[15] = biological target: Gal(b1-4)GlcNAc(b1-3)Gal(b1-4)GlcNAc(b1-2)Man(a1-3)[Gal(b1-4)GlcNAc(b1-3)Gal(b1-4)GlcNAc(b1-2)Man(a1-6)]Man(b1-4)GlcNAc(b1-4)[Fuc(a1-6)]GlcNAc
Outline: as §1

[16] = biological target: Gal(b1-4)GlcNAc(b1-3)Gal(b1-4)GlcNAc(b1-2)[Gal(b1-4)GlcNAc(b1-3)Gal(b1-4)GlcNAc(b1-6)]Man(a1-6)[Gal(b1-4)GlcNAc(b1-3)Gal(b1-4)GlcNAc(b1-2)Man(a1-3)]Man(b1-4)GlcNAc(b1-4)GlcNAc
Outline: as §1

[17] = biological target: Gal(b1-4)GlcNAc(b1-3)Gal(b1-4)GlcNAc(b1-2)[Gal(b1-4)GlcNAc(b1-3)Gal(b1-4)GlcNAc(b1-6)]Man(a1-6)[Gal(b1-4)GlcNAc(b1-3)Gal(b1-4)GlcNAc(b1-2)Man(a1-3)]Man(b1-4)GlcNAc(b1-4)[Fuc(a1-6)]GlcNAc
Outline: as §1

[18] = biological target: Gal(b1-4)GlcNAc(b1-3)Gal(b1-4)GlcNAc(b1-3)Gal(b1-4)GlcNAc
Outline: as §1

B1: Mnn9-2N3 (Aspergillus fumigatus) (protein)
chain: MAVARRMRRTNPITLLLAAILAIGFFIFVLSPSTTSASPVKAGSASSSSTSQQRREDNAAENPLSPPTKPFFKSQPVRHDGQQAPPPVVQYNLNQLSSTSTSAANGERILILTPMARFVPEYWDNVVKLTYPHELISIGFIIPKNKEGNAALAALEAAIAKTQSGPIDKRFASISILRQDFEPPLQSQDEKERHKISNQKARRESMSRARNSLLFTTLGPATAWVLWLDADIVETPPTLIQDLTAHDHPVLVPNCYQRYYNSEKKKMDVRPYDYNSWIDSSTAQSMAAEMGPDEILLEGYAEMPTYRTLMAHLADTANPNPKKVIELDGVGGTALMVKAEVHRDGAMFPAFPFYHLVETEGFAKMAKRLGYSVYGLPDYFVSRNFFFFFFFFFFG
glycan array binding signal (z-score) [1]: -0.499
glycan array binding signal (z-score) [2]: -0.102
glycan array binding signal (z-score) [3]: -0.516
glycan array binding signal (z-score) [4]: -0.269
glycan array binding signal (z-score) [5]: -0.475
glycan array binding signal (z-score) [6]: -0.721
glycan array binding signal (z-score) [7]: 0.615
glycan array binding signal (z-score) [8]: -0.259
glycan array binding signal (z-score) [9]: 0.01
glycan array binding signal (z-score) [10]: -0.539
glycan array binding signal (z-score) [11]: -0.537
glycan array binding signal (z-score) [12]: -0.212
glycan array binding signal (z-score) [13]: -0.099
glycan array binding signal (z-score) [14]: 3.03
glycan array binding signal (z-score) [15]: -1.26
glycan array binding signal (z-score) [16]: -0.06
glycan array binding signal (z-score) [17]: 0.596
glycan array binding signal (z-score) [18]: 0.004

From the supplement of paper PMC8728848
